Experimental data: article PMC4373099
These are yes or no findings as the source states them, for the method shown. For part of these data: Binding seen in cells or lysates may run through a third protein. Some results given as binding are weak or reduced against the parent protein; the word gives no strength. Tags and fused reporters may be left off the sequences shown.

By UniProt entry, the sequences of proteins in these tests, tags left out.
UniProt O14980: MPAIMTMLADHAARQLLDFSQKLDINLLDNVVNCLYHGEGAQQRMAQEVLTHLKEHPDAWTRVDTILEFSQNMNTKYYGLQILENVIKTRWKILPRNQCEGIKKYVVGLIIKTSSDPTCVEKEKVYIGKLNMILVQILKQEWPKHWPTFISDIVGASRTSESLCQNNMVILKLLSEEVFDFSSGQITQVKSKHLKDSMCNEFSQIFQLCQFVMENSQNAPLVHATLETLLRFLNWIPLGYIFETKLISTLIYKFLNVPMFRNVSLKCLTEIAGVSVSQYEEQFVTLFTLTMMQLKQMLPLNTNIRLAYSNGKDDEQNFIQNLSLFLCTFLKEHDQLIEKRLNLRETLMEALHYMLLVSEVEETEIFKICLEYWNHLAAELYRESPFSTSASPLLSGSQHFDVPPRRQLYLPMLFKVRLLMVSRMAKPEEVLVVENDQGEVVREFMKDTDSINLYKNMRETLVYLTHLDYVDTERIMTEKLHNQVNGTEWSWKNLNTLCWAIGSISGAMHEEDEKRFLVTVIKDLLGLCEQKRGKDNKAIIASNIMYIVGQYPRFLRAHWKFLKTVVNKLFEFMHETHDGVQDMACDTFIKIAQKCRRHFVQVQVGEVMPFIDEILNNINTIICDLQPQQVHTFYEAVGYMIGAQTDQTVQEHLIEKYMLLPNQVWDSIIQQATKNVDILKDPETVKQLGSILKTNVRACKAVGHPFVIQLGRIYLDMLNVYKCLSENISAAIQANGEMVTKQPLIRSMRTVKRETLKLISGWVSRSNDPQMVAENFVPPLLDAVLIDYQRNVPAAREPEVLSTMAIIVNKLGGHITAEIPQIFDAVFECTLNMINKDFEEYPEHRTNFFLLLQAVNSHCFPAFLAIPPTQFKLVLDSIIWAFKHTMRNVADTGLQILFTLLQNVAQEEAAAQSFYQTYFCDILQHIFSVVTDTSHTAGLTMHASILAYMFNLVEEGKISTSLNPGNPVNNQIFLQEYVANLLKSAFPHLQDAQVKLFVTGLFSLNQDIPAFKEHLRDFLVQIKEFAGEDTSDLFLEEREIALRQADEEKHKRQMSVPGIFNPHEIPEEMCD

Legend:
[1] = target: T1, GST-tagged Mps1 (human) (UniProt P33981); test: pull-down; GST-Mps1 on GST beads incubated with His-Crm1; room temperature 2 h, 3 hrs in lysis buffer; beads washed 3x; western blot; both purified
T1 sequence: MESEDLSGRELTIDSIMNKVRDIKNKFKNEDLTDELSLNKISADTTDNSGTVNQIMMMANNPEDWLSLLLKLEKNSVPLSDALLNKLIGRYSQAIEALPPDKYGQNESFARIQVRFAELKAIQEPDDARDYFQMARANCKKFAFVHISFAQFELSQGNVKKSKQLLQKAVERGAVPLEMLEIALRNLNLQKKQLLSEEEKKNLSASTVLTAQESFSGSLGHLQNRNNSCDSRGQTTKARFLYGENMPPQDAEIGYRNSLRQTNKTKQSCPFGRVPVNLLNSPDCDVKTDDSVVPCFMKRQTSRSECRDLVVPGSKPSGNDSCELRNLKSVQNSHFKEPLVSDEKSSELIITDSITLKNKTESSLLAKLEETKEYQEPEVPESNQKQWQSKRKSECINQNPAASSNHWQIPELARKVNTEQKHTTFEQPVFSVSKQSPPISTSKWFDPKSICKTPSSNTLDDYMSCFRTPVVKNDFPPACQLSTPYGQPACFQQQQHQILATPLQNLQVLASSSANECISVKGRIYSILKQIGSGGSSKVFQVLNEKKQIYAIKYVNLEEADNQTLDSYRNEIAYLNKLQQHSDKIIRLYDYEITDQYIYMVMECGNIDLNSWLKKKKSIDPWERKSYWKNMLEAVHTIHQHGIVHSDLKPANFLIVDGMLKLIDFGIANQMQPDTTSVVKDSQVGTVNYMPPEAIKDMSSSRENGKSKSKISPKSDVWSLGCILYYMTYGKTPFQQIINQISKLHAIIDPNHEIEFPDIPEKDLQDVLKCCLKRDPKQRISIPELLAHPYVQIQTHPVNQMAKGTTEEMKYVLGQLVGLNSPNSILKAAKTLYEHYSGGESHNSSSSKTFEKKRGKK

[2] = target: T2, myc-Mps1 (mono-polar spindles-1, TTK) (human) (UniProt P33981); test: co-IP; 293 T cells co-transfected with pEXL-FTH-Crm1 and pRK5-myc-Mps1, collected after 48 h for immuno-precipitation; which protein was precipitated not given
T2 sequence: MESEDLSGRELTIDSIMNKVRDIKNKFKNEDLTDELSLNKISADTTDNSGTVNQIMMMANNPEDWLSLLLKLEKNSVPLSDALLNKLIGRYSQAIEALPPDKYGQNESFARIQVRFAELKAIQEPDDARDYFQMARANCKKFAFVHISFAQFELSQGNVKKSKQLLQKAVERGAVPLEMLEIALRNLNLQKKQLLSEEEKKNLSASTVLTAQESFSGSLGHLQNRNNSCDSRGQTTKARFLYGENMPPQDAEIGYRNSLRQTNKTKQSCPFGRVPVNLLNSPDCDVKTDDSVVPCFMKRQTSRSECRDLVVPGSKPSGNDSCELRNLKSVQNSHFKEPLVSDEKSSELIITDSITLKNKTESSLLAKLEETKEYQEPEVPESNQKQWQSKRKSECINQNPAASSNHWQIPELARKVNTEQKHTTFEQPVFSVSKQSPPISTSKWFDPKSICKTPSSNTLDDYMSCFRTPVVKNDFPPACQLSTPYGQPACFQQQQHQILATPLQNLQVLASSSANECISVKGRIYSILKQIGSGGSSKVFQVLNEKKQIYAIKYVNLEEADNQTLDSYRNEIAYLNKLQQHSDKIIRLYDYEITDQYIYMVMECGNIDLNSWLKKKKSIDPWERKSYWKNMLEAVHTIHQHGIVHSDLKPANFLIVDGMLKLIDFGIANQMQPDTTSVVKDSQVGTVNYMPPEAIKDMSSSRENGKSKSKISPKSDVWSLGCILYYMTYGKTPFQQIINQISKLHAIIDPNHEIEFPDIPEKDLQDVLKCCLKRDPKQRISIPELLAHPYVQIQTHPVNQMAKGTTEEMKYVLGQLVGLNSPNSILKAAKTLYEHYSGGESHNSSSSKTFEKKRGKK

[3] = target: 6x His-tagged Crm1 (UniProt O14980); test: pull-down; reciprocal: bead bound His-Crm1 incubated with non-tagged Mps1; same standard protocol; western blot; both purified

6x His-tagged Crm1 (from UniProt O14980 1-1071)
binding [1]: binds

FTH-Crm1 (Chromosome region maintenance 1) (from UniProt O14980 1-1071)
binding [2]: binds

B1: non-tagged Mps1 (protein, UniProt P33981 1-857)
chain: MESEDLSGRELTIDSIMNKVRDIKNKFKNEDLTDELSLNKISADTTDNSGTVNQIMMMANNPEDWLSLLLKLEKNSVPLSDALLNKLIGRYSQAIEALPPDKYGQNESFARIQVRFAELKAIQEPDDARDYFQMARANCKKFAFVHISFAQFELSQGNVKKSKQLLQKAVERGAVPLEMLEIALRNLNLQKKQLLSEEEKKNLSASTVLTAQESFSGSLGHLQNRNNSCDSRGQTTKARFLYGENMPPQDAEIGYRNSLRQTNKTKQSCPFGRVPVNLLNSPDCDVKTDDSVVPCFMKRQTSRSECRDLVVPGSKPSGNDSCELRNLKSVQNSHFKEPLVSDEKSSELIITDSITLKNKTESSLLAKLEETKEYQEPEVPESNQKQWQSKRKSECINQNPAASSNHWQIPELARKVNTEQKHTTFEQPVFSVSKQSPPISTSKWFDPKSICKTPSSNTLDDYMSCFRTPVVKNDFPPACQLSTPYGQPACFQQQQHQILATPLQNLQVLASSSANECISVKGRIYSILKQIGSGGSSKVFQVLNEKKQIYAIKYVNLEEADNQTLDSYRNEIAYLNKLQQHSDKIIRLYDYEITDQYIYMVMECGNIDLNSWLKKKKSIDPWERKSYWKNMLEAVHTIHQHGIVHSDLKPANFLIVDGMLKLIDFGIANQMQPDTTSVVKDSQVGTVNYMPPEAIKDMSSSRENGKSKSKISPKSDVWSLGCILYYMTYGKTPFQQIINQISKLHAIIDPNHEIEFPDIPEKDLQDVLKCCLKRDPKQRISIPELLAHPYVQIQTHPVNQMAKGTTEEMKYVLGQLVGLNSPNSILKAAKTLYEHYSGGESHNSSSSKTFEKKRGKK
binding [3]: binds
